Assay results reported in the supplement of paper PMC3334620.
The full ranking holds about 33,000 sequences; the median of “E-score (-0.5 to 0.5)” is about -0.0034, and the highest 2% start at about 0.25. This is one part of the list.

biological target: T1, Yap3 (UniProt P38749); assay: PBM E-score (8-mer binding enrichment) (E-score (-0.5 to 0.5)); higher = stronger / more preferred TF binding; settings: protein concentration: 100 nM; construct: GST-full length
T1 sequence: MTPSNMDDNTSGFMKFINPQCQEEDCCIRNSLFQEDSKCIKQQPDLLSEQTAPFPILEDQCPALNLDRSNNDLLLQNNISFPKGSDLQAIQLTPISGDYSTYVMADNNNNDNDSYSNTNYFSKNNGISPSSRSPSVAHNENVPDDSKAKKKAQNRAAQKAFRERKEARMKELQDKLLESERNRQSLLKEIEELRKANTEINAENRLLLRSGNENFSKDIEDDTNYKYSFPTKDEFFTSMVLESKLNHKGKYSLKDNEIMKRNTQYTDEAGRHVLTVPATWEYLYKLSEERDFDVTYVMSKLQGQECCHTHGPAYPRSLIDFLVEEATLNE
How it was run: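 For each ungapped eight-base word taken together with its reverse complement, the Universal PBM Analysis Suite assigned an E-score. Binding data came from GST-tagged yeast transcription factors, applied at about 100-200 nM, on universal all-10-mer Agilent arrays made double-stranded by primer extension. Fluorescent anti-GST marked bound protein, and scans were normalised with masliner.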

Row | Sequence | PBM E-score
1 | CCTGTACC | -0.192
2 | ATTTCGTC | 0.198
3 | TATAACAA | 0.265
4 | CCCGAGGG | -0.181
5 | GTGAAGTA | -0.0249
6 | AGGTGGGC | -0.169
7 | AACCGTTC | 0.0457
8 | ACCCACCT | -0.176
9 | AGTCGAAT | -0.119
10 | CCTGTCAC | -0.119
11 | CCTCCACA | 0.0441
12 | CAAGTTGC | 0.124
13 | GAACAGGA | 0.0208
14 | AGTGATAC | 0.0972
15 | ATGTCTAA | 0.113
16 | GTTTAACA | -0.0384
17 | AGTACCTC | -0.158
18 | GTGCCTTA | 0.0418
19 | AAGTCACA | 0.0519
20 | CAAACGCC | 0.046
21 | CAGACGAC | -0.13
22 | ACGTTAGA | 0.199
23 | ATAACCAC | 0.112
24 | GTCACGAC | 0.0514
25 | CCCAACAG | -0.193

Row | Sequence | PBM E-score
26 | ATTGGAGC | 0.217
27 | AAATCAGT | 0.0169
28 | CGCCGTTA | -0.00062
29 | GGTTCCCA | -0.0281
30 | GGAATGAC | -0.0484
31 | GATATCGA | 0.0754
32 | ATCCGCCA | -0.1
33 | GAACCAAC | 0.00249
34 | GATCTCCA | -0.0538
35 | ACTCTTAG | -0.259
36 | AAGAATCT | -0.122
37 | GGGCCAGA | -0.307
38 | GACACCCA | -0.184
39 | ACGTTCAT | -0.135
40 | GGCTTCCC | -0.127
41 | AGGTCGAT | 0.167
42 | GATACGAC | 0.0825
43 | TCTCCTAA | 0.0355
44 | AAGCCTCA | -0.231
45 | ACAACTAG | -0.109
46 | GGTTCCAA | 0.09
47 | AACAGCGC | -0.061
48 | AATGCTAT | 0.148
49 | GGGCTAGA | -0.105
50 | AAACCGTC | -0.101

Row | Sequence | PBM E-score
51 | ACGTAAAC | -0.0817
52 | TACTTCGA | 0.138
53 | TCGAAAAA | 0.237
54 | AGGCATGA | -0.135
55 | ACTCCTCC | -0.0812
56 | CGATTTGA | 0.0627
57 | GGGTGGAC | -0.169
58 | GACCCCGA | -0.0931
59 | AGCTGCAA | -0.193
60 | ACCGACTA | -0.308
61 | GGAGCTTA | -0.0908
62 | GGGCCTCA | -0.257
63 | ACTTTATC | 0.169
64 | GAACTCCC | -0.104
65 | AATAGGCT | 0.0204
66 | AAGACCCG | -0.121
67 | GGGATAAC | 0.0059
68 | CCGAGCGA | -0.0663
69 | CAAATGCC | -0.0918
70 | GTCGGCAA | -0.0657
71 | CCTGTTGC | -0.00854
72 | GGGTCTCA | -0.138
73 | CAGCGCCC | -0.264
74 | CTAATTGC | 0.0288
75 | CCAAGATC | -0.127

Row | Sequence | PBM E-score
76 | ATCTTCCC | -0.0179
77 | AAATGTCT | 0.134
78 | AATGAGCC | -0.238
79 | GTCAATCA | -0.0169
80 | CGCGTCCG | -0.0235
81 | ACGATGAC | -0.122
82 | GCCCGACA | 0.0931
83 | AACCGATG | -0.132
84 | CATGCAGC | -0.153
85 | AGAGAGGG | -0.347
86 | GGAGTGCC | -0.202
87 | CATAAGAG | -0.071
88 | AGAAGCTC | -0.193
89 | AACGGTGG | -0.105
90 | ACCGGGCA | -0.164
91 | ATGCCTCG | 0.0974
92 | AAAGCTGC | 0.018
93 | CGCTCCAA | -0.141
94 | ACGTTTCC | -0.102
95 | CGTCCGCA | -0.18
96 | GATGATTA | 0.0319
97 | CCCCGAGA | -0.148
98 | AACACTTG | 0.0146
99 | GCCTACAA | 0.00486
100 | TCGAGGAA | 0.025

Row | Sequence | PBM E-score
101 | GTTCTAAA | 0.0261
102 | CGGAGTTA | -0.0186
103 | ACTGCACG | -0.119
104 | CGCTCGTC | -0.111
105 | AATAACGC | -0.0289
106 | GCTTATCA | 0.0728
107 | ACAACATC | 0.0853
108 | TATATTGA | 0.228
109 | ATCCGATC | 0.102
110 | CTAAAAGA | -0.0682
111 | AACGGCCT | -0.153
112 | CCTAAGTA | 0.112
113 | AGTTAGAA | 0.0548
114 | CCGGTGTA | -0.0878
115 | CCCTTAAG | -0.0249
116 | AGTCTATC | -0.0771
117 | CTCGTGGC | -0.159
118 | CCCCGATA | -0.116
119 | GGTGAACC | -0.0423
120 | AGGCCTGA | -0.0433
121 | AGTGGCTG | -0.0211
122 | GAGGAGTA | 0.01
123 | GCAACGTA | 0.124
124 | CACACTTA | 0.0527
125 | AGCACTAT | 0.0238

Row | Sequence | PBM E-score
126 | CTATGTAA | 0.104
127 | ATCGAATG | 0.189
128 | CGATCCAA | -0.158
129 | GGATCATA | -0.0339
130 | CCATATAG | 0.0214
131 | TAGGTGGA | 0.0552
132 | CGTATGGA | 0.0201
133 | CGACCAAA | 0.174
134 | GTTCTCCA | 0.033
135 | AACTAGTT | 0.0859
136 | AAATATAC | 0.19
137 | ATACCGAC | -0.075
138 | ATTAACTA | 0.229
139 | CCAACTGG | 0.00781
140 | GGCTAACA | -0.0559
141 | ACTCGTAC | -0.0614
142 | GCTGAGTA | 0.0149
143 | ATATACCA | 0.213
144 | ATTAATGG | 0.185
145 | AAGAAACA | 0.217
146 | TACCACTA | 0.0932
147 | GGGCACCC | -0.424
148 | ACCAGTAT | 0.0555
149 | CCGATTAC | 0.0783
150 | AATTGAGA | 0.101

Row | Sequence | PBM E-score
151 | GAGGCCAA | -0.0373
152 | ATCAAATC | 0.197
153 | CAGGACAG | -0.0314
154 | CGGGAGGA | -0.192
155 | AGGGCAGG | -0.253
156 | AGAATACA | 0.191
157 | GATGGCGA | 0.0553
158 | TGCTAACA | -0.0164
159 | ATTGGATA | 0.161
160 | CGTTTCAA | 0.0256
161 | GTAGACCA | -0.0918
162 | AATATCGT | 0.167
163 | ACTGGGTA | -0.0875
164 | AAATTTCA | 0.0121
165 | ACCTGGCA | 0.0301
166 | ATCTTATG | 0.0696
167 | CCCTAATA | 0.0505
168 | GCTGTTGA | 0.126
169 | GCATTCAA | 0.0939
170 | GAGACATA | 0.167
171 | CGATCACA | 0.152
172 | ACGATGAG | 0.0506

Copied from above: entries 2 to 38
Row | Sequence | PBM E-score
2 | ATTTCGTC | 0.198
3 | TATAACAA | 0.265
4 | CCCGAGGG | -0.181
5 | GTGAAGTA | -0.0249
6 | AGGTGGGC | -0.169
7 | AACCGTTC | 0.0457
8 | ACCCACCT | -0.176
9 | AGTCGAAT | -0.119
10 | CCTGTCAC | -0.119
11 | CCTCCACA | 0.0441
12 | CAAGTTGC | 0.124
13 | GAACAGGA | 0.0208
14 | AGTGATAC | 0.0972
15 | ATGTCTAA | 0.113
16 | GTTTAACA | -0.0384
17 | AGTACCTC | -0.158
18 | GTGCCTTA | 0.0418
19 | AAGTCACA | 0.0519
20 | CAAACGCC | 0.046
21 | CAGACGAC | -0.13
22 | ACGTTAGA | 0.199
23 | ATAACCAC | 0.112
24 | GTCACGAC | 0.0514
25 | CCCAACAG | -0.193
26 | ATTGGAGC | 0.217
27 | AAATCAGT | 0.0169
28 | CGCCGTTA | -0.00062
29 | GGTTCCCA | -0.0281
30 | GGAATGAC | -0.0484
31 | GATATCGA | 0.0754
32 | ATCCGCCA | -0.1
33 | GAACCAAC | 0.00249
34 | GATCTCCA | -0.0538
35 | ACTCTTAG | -0.259
36 | AAGAATCT | -0.122
37 | GGGCCAGA | -0.307
38 | GACACCCA | -0.184
